For at least one compound, name, drawing or mass did not settle the structure.
Experiment: Peroxide neutralization rate profile in Clear Care® lens case with platinum element
Assay type: physicochemical
Settings: 0.3 wt. %

## NC(N)=S [Thiourea]
  effect on the neutralization reaction: completely shut down the neutralization reaction

From patent US8932646B2, “Peroxide contact lens care solution” (Bausch & Lomb Incorporated, priority 2010, dated 2015)
